According to the supplement of paper PMC12067093, “Discovery and optimisation of a covalent ligand for TRIM25 and its application to targeted protein ubiquitination” (Chemical Science, 2025):
This is one part of the list.

Protein sequences, listed by entry. Tags and fused reporters are not part of them. Lines headed by an entry give the natural chain unless they say otherwise; changes in a name come on top.
UniProt O76071: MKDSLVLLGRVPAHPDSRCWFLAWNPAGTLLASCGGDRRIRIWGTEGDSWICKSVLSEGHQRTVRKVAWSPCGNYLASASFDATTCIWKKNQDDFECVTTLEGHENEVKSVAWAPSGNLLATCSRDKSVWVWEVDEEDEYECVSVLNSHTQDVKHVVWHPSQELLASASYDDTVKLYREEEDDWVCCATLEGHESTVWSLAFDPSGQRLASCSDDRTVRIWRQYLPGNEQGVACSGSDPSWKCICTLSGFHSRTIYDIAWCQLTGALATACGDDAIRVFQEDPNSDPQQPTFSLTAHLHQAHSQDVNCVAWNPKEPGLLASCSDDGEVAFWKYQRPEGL
UniProt Q9UDT6: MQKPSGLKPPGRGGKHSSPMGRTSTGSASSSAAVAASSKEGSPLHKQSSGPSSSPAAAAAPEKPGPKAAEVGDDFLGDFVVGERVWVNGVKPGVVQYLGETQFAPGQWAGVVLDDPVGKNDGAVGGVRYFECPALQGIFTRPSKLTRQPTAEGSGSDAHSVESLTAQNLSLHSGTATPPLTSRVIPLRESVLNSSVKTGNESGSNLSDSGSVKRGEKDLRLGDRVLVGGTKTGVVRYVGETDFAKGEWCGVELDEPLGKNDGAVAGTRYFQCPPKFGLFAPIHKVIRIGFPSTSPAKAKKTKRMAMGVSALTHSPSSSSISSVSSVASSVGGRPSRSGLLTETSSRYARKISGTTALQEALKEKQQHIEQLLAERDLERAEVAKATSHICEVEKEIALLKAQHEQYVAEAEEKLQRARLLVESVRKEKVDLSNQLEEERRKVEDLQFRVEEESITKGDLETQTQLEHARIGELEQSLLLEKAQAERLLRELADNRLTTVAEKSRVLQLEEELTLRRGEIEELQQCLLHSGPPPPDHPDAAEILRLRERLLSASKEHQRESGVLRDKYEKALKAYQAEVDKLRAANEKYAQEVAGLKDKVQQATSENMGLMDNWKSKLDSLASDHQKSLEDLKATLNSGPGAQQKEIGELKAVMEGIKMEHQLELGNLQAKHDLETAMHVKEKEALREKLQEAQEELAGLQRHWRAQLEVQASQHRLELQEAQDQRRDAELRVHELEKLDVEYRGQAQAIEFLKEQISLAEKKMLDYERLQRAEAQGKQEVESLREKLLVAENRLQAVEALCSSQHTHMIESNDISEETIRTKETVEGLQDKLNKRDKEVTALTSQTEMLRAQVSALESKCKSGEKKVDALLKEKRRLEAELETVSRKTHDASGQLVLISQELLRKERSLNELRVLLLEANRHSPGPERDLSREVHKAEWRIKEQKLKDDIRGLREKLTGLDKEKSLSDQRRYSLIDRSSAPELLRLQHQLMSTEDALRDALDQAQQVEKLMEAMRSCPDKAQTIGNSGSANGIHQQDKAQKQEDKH
UniProt Q8IZ52: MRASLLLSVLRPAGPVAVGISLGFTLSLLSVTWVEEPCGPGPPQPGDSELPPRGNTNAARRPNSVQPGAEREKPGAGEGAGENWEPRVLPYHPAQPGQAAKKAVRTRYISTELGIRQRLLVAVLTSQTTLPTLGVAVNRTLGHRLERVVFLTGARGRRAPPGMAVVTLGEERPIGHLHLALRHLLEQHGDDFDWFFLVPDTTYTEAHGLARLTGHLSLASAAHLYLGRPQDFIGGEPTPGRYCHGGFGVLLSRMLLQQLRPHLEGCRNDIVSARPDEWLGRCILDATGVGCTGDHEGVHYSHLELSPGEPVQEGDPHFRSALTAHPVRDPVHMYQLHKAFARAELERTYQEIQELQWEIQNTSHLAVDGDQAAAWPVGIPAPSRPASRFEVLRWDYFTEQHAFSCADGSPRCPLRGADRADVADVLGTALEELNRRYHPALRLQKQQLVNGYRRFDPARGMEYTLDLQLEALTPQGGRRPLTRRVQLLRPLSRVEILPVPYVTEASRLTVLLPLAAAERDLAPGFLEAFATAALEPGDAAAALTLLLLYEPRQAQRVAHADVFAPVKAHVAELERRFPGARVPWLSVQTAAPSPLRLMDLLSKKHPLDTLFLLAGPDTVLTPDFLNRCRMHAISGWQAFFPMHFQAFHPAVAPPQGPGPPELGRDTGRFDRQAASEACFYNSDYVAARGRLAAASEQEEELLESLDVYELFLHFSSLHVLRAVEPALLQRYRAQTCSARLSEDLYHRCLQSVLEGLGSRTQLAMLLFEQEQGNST
UniProt Q9UHD1: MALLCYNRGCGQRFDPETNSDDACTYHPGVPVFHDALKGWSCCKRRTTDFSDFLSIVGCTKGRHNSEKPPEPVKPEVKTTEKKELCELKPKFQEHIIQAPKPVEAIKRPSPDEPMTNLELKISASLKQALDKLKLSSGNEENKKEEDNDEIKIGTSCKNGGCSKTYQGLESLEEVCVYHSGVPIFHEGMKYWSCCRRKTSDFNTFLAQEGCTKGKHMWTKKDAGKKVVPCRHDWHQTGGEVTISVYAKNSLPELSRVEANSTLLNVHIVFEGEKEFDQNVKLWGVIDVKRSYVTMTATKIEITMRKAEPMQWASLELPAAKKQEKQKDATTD
UniProt Q13111, whole entry, looked up: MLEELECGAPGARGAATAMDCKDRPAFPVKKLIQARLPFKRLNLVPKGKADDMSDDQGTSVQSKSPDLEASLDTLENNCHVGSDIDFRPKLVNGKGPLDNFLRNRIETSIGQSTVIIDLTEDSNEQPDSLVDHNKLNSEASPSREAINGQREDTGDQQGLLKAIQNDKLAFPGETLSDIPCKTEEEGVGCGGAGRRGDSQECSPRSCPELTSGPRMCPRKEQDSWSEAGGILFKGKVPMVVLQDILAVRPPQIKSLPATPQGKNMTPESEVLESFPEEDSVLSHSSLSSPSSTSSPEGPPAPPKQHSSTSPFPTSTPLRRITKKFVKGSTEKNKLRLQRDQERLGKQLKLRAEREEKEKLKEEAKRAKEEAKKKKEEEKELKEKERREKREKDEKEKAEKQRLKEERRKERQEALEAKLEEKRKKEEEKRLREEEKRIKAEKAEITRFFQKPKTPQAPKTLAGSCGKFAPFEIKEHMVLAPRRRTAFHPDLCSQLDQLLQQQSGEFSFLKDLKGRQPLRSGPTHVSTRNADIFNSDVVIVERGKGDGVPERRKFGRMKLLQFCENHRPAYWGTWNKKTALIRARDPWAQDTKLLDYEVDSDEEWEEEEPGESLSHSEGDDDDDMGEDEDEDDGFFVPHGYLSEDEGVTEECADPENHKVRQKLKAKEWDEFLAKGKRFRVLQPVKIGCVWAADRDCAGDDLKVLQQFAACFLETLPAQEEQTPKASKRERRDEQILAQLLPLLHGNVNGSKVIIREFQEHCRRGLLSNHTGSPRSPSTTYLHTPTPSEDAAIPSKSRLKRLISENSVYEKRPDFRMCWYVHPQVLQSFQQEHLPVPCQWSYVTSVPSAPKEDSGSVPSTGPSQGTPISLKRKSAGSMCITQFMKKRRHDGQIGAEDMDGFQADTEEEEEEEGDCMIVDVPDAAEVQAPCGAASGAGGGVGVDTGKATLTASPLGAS
UniProt Q96JM3: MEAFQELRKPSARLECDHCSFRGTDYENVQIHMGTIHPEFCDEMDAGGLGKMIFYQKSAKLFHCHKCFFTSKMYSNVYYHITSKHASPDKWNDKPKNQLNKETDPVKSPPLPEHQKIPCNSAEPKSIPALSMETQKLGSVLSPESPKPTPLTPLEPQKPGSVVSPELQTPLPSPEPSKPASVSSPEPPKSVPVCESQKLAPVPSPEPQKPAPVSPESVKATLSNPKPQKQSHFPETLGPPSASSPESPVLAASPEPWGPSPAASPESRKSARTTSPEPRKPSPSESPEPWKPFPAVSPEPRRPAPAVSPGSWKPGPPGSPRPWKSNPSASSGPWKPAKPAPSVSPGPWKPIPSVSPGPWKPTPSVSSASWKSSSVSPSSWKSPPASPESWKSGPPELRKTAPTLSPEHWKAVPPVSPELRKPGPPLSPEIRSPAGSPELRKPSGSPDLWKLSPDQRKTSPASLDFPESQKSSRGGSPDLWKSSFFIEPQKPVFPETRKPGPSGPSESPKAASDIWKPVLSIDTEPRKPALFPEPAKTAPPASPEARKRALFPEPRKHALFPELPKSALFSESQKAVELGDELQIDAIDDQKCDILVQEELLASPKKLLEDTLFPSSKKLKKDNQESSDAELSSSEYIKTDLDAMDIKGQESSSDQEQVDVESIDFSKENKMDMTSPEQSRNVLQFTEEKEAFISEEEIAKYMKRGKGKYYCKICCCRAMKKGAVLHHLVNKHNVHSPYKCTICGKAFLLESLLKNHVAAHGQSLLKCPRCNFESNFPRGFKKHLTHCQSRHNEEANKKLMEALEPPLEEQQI
UniProt Q9Y696: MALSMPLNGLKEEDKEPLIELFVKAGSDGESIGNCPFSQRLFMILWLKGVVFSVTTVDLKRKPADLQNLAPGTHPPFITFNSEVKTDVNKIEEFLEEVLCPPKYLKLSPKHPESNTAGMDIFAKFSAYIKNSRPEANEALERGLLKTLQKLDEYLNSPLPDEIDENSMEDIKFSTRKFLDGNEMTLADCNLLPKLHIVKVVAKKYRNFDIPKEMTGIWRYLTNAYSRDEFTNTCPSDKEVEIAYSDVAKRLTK
UniProt Q9NX63: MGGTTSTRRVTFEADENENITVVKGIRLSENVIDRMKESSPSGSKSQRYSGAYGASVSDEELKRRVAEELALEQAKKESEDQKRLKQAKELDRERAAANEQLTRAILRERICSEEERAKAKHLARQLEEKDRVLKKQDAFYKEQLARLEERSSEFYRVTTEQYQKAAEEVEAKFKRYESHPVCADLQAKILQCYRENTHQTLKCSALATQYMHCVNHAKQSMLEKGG
UniProt P23528, whole entry, looked up: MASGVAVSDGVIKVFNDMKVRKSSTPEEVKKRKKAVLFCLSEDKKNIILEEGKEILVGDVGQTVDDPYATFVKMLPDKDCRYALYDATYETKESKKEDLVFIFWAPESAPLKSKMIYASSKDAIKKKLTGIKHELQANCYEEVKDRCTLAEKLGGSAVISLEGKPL
UniProt Q00610: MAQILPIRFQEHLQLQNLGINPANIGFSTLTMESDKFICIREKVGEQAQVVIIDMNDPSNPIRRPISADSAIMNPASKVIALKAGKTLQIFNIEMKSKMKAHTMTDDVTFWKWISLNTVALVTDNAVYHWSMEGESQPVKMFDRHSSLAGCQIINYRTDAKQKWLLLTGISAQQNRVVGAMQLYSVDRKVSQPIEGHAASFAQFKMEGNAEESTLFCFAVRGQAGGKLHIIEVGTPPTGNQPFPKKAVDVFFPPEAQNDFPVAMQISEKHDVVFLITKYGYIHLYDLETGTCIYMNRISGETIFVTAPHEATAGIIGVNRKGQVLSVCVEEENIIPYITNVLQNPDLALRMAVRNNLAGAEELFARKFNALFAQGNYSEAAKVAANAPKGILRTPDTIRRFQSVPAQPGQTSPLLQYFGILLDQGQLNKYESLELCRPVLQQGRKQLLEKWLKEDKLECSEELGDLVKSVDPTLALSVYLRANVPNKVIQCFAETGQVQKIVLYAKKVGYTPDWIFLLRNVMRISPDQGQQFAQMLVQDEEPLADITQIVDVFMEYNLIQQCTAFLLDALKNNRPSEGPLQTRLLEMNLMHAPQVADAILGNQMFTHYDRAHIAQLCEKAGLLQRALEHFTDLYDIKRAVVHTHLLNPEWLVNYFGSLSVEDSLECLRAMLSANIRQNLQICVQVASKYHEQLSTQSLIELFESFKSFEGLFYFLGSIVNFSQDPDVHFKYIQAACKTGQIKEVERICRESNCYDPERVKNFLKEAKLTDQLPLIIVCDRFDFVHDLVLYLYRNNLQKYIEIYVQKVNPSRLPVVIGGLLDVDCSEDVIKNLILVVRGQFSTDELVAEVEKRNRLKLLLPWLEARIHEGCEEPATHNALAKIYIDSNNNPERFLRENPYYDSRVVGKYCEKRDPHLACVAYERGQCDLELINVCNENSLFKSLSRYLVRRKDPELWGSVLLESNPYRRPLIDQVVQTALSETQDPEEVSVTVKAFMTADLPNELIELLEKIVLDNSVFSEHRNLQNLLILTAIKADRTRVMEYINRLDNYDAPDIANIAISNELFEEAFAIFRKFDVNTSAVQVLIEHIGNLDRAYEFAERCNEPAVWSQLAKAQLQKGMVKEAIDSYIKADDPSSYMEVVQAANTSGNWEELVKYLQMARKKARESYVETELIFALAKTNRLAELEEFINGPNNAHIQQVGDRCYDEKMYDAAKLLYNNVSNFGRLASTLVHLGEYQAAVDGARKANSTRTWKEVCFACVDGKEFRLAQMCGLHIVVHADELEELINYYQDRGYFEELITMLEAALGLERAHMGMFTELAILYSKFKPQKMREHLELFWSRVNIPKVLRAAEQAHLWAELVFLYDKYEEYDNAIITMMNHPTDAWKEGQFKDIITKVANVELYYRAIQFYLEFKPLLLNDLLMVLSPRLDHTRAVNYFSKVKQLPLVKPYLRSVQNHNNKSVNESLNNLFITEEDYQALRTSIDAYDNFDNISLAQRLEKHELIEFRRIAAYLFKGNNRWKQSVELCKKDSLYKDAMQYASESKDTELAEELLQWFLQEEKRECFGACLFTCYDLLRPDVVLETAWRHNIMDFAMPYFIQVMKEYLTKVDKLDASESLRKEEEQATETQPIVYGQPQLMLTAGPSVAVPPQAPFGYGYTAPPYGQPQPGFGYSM

Compound: Cc1cc(ccc1-c1ccccc1)C(=O)N1CCCN(CC1)C(=O)CCl [compound 10]
Test: probe-labelled cysteine peptide fold change vs DMSO (competition) (log2 fold change); higher = less target engagement (more negative = stronger competition)
Details: THP-1, incubation time: 4 h
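Further: competitive profiling in live THP-1 cells: cysteine peptides tagged with an iodoacetamide desthiobiotin (IA-DTB) probe, intensity after compound treatment relative to DMSO-treated cells.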

Target | probe-labelled cysteine peptide fold change (10 µM) | probe-labelled cysteine peptide fold change (50 µM)
CIAO1_O76071_123_SVAWAPSGNLLATCSR (UniProt O76071) | 0.0858 | 0.18
CLTCL1_P53675_918_RDPHLACVAYER (UniProt P53675) | 0.018 | 0.107
CHST11_Q9NPF2_89_DQVTDTCR (UniProt Q9NPF2) | -0.197 | -0.0677
CLEC16A_Q2KHT3_588_DVHLACLEGAREESVHLVR (UniProt Q2KHT3) | -0.223 | -0.195
CLIP2_Q9UDT6_272_YFQCPPK (UniProt Q9UDT6) | -0.000605 | 0.0735
CISD2_Q8N5K1_92_VVNEINIEDLCLTK (UniProt Q8N5K1) | -0.127 | -0.666
CLPB_Q9H078_267_GCTALHYAVLADDYR (UniProt Q9H078) | 0.0157 | 0.0121
CHPF_Q8IZ52_243_YCHGGFGVLLSR (UniProt Q8IZ52) | -0.176 | 0.255
CHORDC1_Q9UHD1_86_ELCELKPK (UniProt Q9UHD1) | -0.237 | -0.482
CHAF1A_Q13111_79_SPDLEASLDTLENNCHVGSDIDFRPK (UniProt Q13111) | -0.25 | -0.331
CHST14_Q8NCH0_117_AVCGQPGMPR (UniProt Q8NCH0) | 0.00457 | 0.118
CHD1_O14646_502_GNSCILADEMGLGK (UniProt O14646) | 0.109 | 0.134
CHAMP1_Q96JM3_787_HLTHCQSR (UniProt Q96JM3) | 0.0546 | -0.388
CLIC4_Q9Y696_35_AGSDGESIGNCPFSQR (UniProt Q9Y696) | -0.404 | -0.151
CHML_P26374_366_NFLQCLGR (UniProt P26374) | 0.116 | 0.142
CIP2A_Q8TCG1_6_MDSTACLK (UniProt Q8TCG1) | -0.0871 | -0.884
CHCHD3_Q9NX63_204_CSALATQYMHCVNHAK (UniProt Q9NX63) | -0.212 | -0.0823
CKAP5_Q14008_637_TEMPCQALVR (UniProt Q14008) | -0.0329 | 0.0705
CHD6_Q8TD26_975_FCEEDIDQILQR (UniProt Q8TD26) | -0.0469 | 0.164
CFL1_P23528_80_MLPDKDCR (UniProt P23528) | -0.408 | -0.881

An excerpt of these results, tab-delimited:
Target	probe-labelled cysteine peptide fold change (10 µM)	probe-labelled cysteine peptide fold change (50 µM)
CHAF1A_Q13111_79_SPDLEASLDTLENNCHVGSDIDFRPK (UniProt Q13111)	-0.25	-0.331
CFL1_P23528_80_MLPDKDCR (UniProt P23528)	-0.408	-0.881

Next part:

Target | probe-labelled cysteine peptide fold change (10 µM) | probe-labelled cysteine peptide fold change (50 µM)
CLTC_Q00610_1573_RECFGACLFTCYDLLRPDVVLETAWR (UniProt Q00610) | 0.384 | 0.276
CLIP2_Q9UDT6_525_RGEIEELQQCLLHSGPPPPDHPDAAEILR (UniProt Q9UDT6) | -0.0951 | 0.134
CLIC4_Q9Y696_234_DEFTNTCPSDK (UniProt Q9Y696) | -0.177 | 0.0243
CLASP1_Q7Z460_173_IVPHICNLLGDPNSQVR (UniProt Q7Z460) | 0.117 | -0.368
CLUH_O75153_753_DAAAFLLSCQIPGLVK (UniProt O75153) | 0.0917 | 0.00616
CIAO1_O76071_97_NQDDFECVTTLEGHENEVK (UniProt O76071) | -0.109 | -0.12
CMAS_Q8NFW8_422_EFAEHICLLMEK (UniProt Q8NFW8) | -0.0896 | -0.0383
CHCHD7_Q9BUK0_16_LRDPDINPCLSESDASTR (UniProt Q9BUK0) | -0.273 | 0.029
CLTC_Q00610_1565_RECFGACLFTCYDLLRPDVVLETAWR (UniProt Q00610) | 0.162 | 0.238
CHCHD3_Q9NX63_112_ERICSEEER (UniProt Q9NX63) | -0.207 | -0.458
CHD1_O14646_497_DYQLNGLNWLAHSWCK (UniProt O14646) | 0.00729 | 0.0426
CHORDC1_Q9UHD1_24_FDPETNSDDACTYHPGVPVFHDALK (UniProt Q9UHD1) | -0.105 | -0.041
CHAMP1_Q96JM3_16_LECDHCSFR (UniProt Q96JM3) | 0.32 | 0.288
CIAPIN1_Q6FI81_288_CASCPYLGMPAFKPGEK (UniProt Q6FI81) | 0.0106 | -0.654
CHUK_O15111_30_LGTGGFGNVCLYQHR (UniProt O15111) | 0.0193 | -0.259
CHM_P24386_302_RMLMKFLTFCMEYEK (UniProt P24386) | 0.0319 | -0.572
CHAF1B_Q13112_283_RPIAHLPCPGK (UniProt Q13112) | 0.00463 | -0.0866
CLTC_Q00610_926+934_GQCDLELINVCNENSLFK (UniProt Q00610) | 0.00128 | -0.0309
CHCHD3_Q9NX63_183_RYESHPVCADLQAK (UniProt Q9NX63) | -0.372 | -0.179
